Experimental findings from US20180078476A1, “Method of Increasing Uptake of Washfastness of Hair Health Compounds” (The Procter & Gamble Company, priority 2016, published 2018) are described below.

The structures appear in SMILES notation.

The data set in a line: Uptake of compounds by hair from aqueous solution (UPLC before and after treatment). To be noted: 5-10 mL of aq. 0.1-0.2 wt % solution, pH 7, shaken with 1 g of hair for 5 minutes; concentration by UPLC before and after.
Consider `O=C(O)c1cccnc1` [A, reference compound], for which the “% Uptake” value is reported as 0%.

As to `NC(=O)c1cccnc1` [B, reference compound], the “% Uptake” value turned out to be 9%.

`NCCCNC(=O)c1cccnc1` [C]: the “% Uptake” value turned out to be 20%.

As to `C[N+](C)(CCCN)CCCNC(=O)c1cccnc1` [D], the “% Uptake” value is listed as 49%.

As for `CC(C)(CO)[C@@H](O)C(=O)NCCC(=O)NCc1ccc(O)cc1` [Example E, reference compound], the “% Uptake” value was found to be 0%.

Take `C[n+]1ccc(CNC(=O)CCNC(=O)[C@H](O)C(C)(C)CO)cc1.[Br-]` [F]: the “% Uptake” value is on record as 2%.

`CC(C)(CO)[C@@H](O)C(=O)NCCC(=O)NCc1cc[n+](CCCN)cc1.[Br-]` [G, reference compound]: the “% Uptake” value was 13%.

Regarding `Cc1c(C)c2c(c(C)c1O)CC[C@@](C)(C(=O)O)O2` [H], the “% Uptake” value was determined as 0%.

For the molecule `Cc1c(C)c2c(c(C)c1O)CC[C@@](C)(C(=O)NCCCN(C)C)O2` [I], the “% Uptake” value is 44.4%.
